Drawing on PubChem BioAssay AID493014 (National Center for Advancing Translational Sciences (NCATS), 2011), this text covers AC50 for 43 compounds.

SMILES strings stand for the structures. This is one part of the list. The main result of the screen is listed elsewhere. These columns were measured beside it and carry no call. The list favours compounds with an active or inconclusive main result. Words in brackets tell the shape of the fitted curve; partial curves, single points and poor fits give uncertain potencies.

A short description of this assay: qHTS Assay to Find Inhibitors of Chronic Active B-Cell Receptor Signaling. The following applies: ABC-DLBCL IkBa-CBG/CBR reporter, luminescence ratio (green luciferase fused to IkBa over red control in TMD8 lymphoma cells), 4 h. In short, it runs like this:
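Concentration-response series (up to 46 uM) were applied to TMD8 dual-reporter cells for 4 h at 37C with doxycycline. Green/red ratio, after filter-overlap correction, defined %Activity; red signal alone was normalised to basal cells and zero luminescence.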
(Quantitative high-throughput screening tests each substance at several concentrations.)

Setting [1] is: measured here: CBR red luminescence, cell number.

As to `O=C(c1cnn(C(=O)c2ccccc2)c1)c1ccccc1O`, the AC50 – broadly, the midpoint of the concentration-response curve, whichever way the signal moves – under setting [1] is 2.06 µM [falling, full curve, poor fit].

Turning to `O=C(Nc1nc(-c2ccccn2)cs1)c1ccc2c(c1)OCCO2`, the AC50 under setting [1] was 35.5 µM [falling, single point].

Regarding `Cc1nc2sc(C(c3cccs3)N3CCN(c4ccccc4)CC3)c(O)n2n1` (stereo not drawn), the AC50 under setting [1] was 20.6 µM [rising, single point].

As to `O=C(C1CCN(S(=O)(=O)c2cccs2)CC1)N1CCCC(C(F)(F)F)C1` (stereo not drawn), under setting [1], the AC50 was 0.0891 µM [falling, full curve, poor fit].

Take `Cc1cc(=O)n2nc(-c3ccccc3)sc2n1`: the AC50 under setting [1] was 16.4 µM [falling, partial curve].

On to `Cc1nnc(C)n1/N=C/c1cccc(Oc2ccccc2)c1`, for which the AC50 under setting [1] was 5.17 µM [falling, full curve].

For `NC(=O)CC(NC(=O)Cc1cccc2ccccc12)c1ccc(N2CCc3ccccc3C2)c([N+](=O)[O-])c1` (stereo not drawn), the AC50 under setting [1] was 8.91 µM [falling, partial curve, poor fit].

In the case of `CCCc1cc(=O)oc2c3c(cc(OCC(=O)NCC4CCC(C(=O)O)CC4)c12)OC(C)(C)CC3` (stereo not drawn), the AC50 under setting [1] was 35.5 µM [falling, single point].

Consider `Oc1[nH]c2ccccc2c1N=Nc1nc2ccccc2s1`, for which, under setting [1], the AC50 is 0.013 µM [falling, full curve, poor fit].

With `COc1ccc(CN2CCN(c3ncnc4scc(-c5ccc(F)cc5)c34)CC2)cc1`, the concentration at half-maximal activity (AC50) under setting [1] is 35.5 µM [falling, single point].

On to `COc1ccc(C)cc1S(=O)(=O)Nc1cc2c3c(c1)CCC(=O)N3CCC2`, for which the AC50 under setting [1] was 14.6 µM [rising, partial curve, poor fit].

As to `CC(=O)Nc1ccc(S(=O)(=O)N(Cc2cc3ccc(C)cc3[nH]c2=O)CC2CCCO2)cc1` (stereo not drawn), the AC50 under setting [1] was 3.55 µM [rising, partial curve, poor fit].

Turning to `Cc1ccc(-n2nnc3ccccc3c2=O)cc1C`, under setting [1], the AC50 is 6.51 µM [falling, single point].

`CC(=O)Nc1ccc2nc(NC(=O)COc3cccc(C)c3)sc2c1`: the AC50 under setting [1] was 7.08 µM [falling, partial curve, poor fit].

Take `CCSc1ncnc2c1oc1ccccc12`: the half-maximal activity concentration (AC50) under setting [1] is 7.08 µM [rising, partial curve, poor fit].

On to `COc1ccccc1NC(=O)c1cc2ccccc2o1`, for which the AC50 under setting [1] was 32.6 µM [falling, single point].

As for `CSc1ccc(C(=O)C2CCCN(C(=O)c3cccnc3SC)C2)cc1` (stereo not drawn), the AC50 under setting [1] is 3.55 µM [rising, single point].

On to `COc1cccc(Nc2c3c(nc4c(-c5ccccc5)c(C)nn24)CCC3)c1`, for which, under setting [1], the AC50 was 20.6 µM [falling, single point].

Consider `Cc1ccc(CSc2nnc(NC(=O)Cn3cnc4ccccc4c3=O)s2)cc1`, for which the AC50 under setting [1] was 35.5 µM [rising, single point].

Consider `CCCCNc1c(-c2ccc(SC(C)CC)c(OC)c2)nc2ccc(C)cn12` (stereo not drawn), for which the half-maximal activity concentration (AC50) under setting [1] was 16.4 µM [falling, partial curve].

Turning to `O=C1COc2ccc(C(=O)NC3CC3)cc2N1`, the AC50 under setting [1] was 3.98 µM [rising, partial curve, poor fit].

For `COc1ccccc1CNC(=O)CN1C(=O)NC(Cc2ccccc2)(c2ccccc2)C1=O` (stereo not drawn), the AC50 under setting [1] is 0.164 µM [rising, full curve, poor fit].

In the case of `Cc1nnc(Sc2nc3ccccc3o2)c2ccccc12`, the AC50 under setting [1] was 18.4 µM [falling, single point].

Regarding `CCc1nc(NCc2ccccn2)c2oc3ccccc3c2n1`, the half-maximal activity concentration (AC50) under setting [1] was 22.4 µM [falling, single point].

Regarding `CCNC(=O)CC1SC(=Nc2ccccc2C)N(C)C1=O` (stereo not drawn), the AC50 under setting [1] is 23.1 µM [rising, partial curve, poor fit].

Turning to `COc1cc(-c2noc(C)c2C#CCO)cc(OC)c1OC`, the AC50 under setting [1] was 11.2 µM [falling, partial curve, poor fit].

Regarding `O=C(Oc1ccc2ccccc2c1Br)N1CCCCCC1`, the concentration at half-maximal activity (AC50) under setting [1] is 14.1 µM [rising, partial curve, poor fit].

For the compound `CC(Oc1ccc2c(-c3ccccc3)cc(=O)oc2c1)C(=O)O` (stereo not drawn), the AC50 under setting [1] is 12.6 µM [rising, single point].

For `Cc1nc2nc(SCc3ccccc3)[nH]n2c(=O)c1C`, the AC50 under setting [1] was 3.98 µM [falling, partial curve].

Turning to `C=CCNC(=S)N1CCN(Cc2ccc3c(c2)OCO3)CC1`, the AC50 under setting [1] was 31.6 µM [falling, partial curve, poor fit].

In the case of `Cc1ccc2occ(/C=C/C(=O)c3ccccc3O)c(=O)c2c1`, under setting [1], the AC50 was 6.31 µM [rising, single point].

As to `O=S1(=O)CC(O)C(NCc2cccnc2)C1` (stereo not drawn), the AC50 under setting [1] is 16.4 µM [falling, single point].

Take `O=C(NCc1n[nH]c(=S)n1-c1ccc(F)cc1)c1ccc(S(=O)(=O)N2CCCCC2)cc1`: the AC50 under setting [1] is 7.94 µM [falling, partial curve, poor fit].

Turning to `COC(=O)c1ccc(S(=O)(=O)N2CCN(C)CC2)n1C`, under setting [1], the AC50 was 35.5 µM [rising, single point].

For `O=C(CSCc1ccccn1)Nc1ccccc1`, the AC50 under setting [1] was 20.6 µM [rising, partial curve, poor fit].

In the case of `CC(=O)c1cn(-c2ccc(Cl)cc2)c(=O)[nH]c1=O`, the AC50 under setting [1] is 7.08 µM [rising, partial curve, poor fit].

Regarding `C=CCNC(=S)NCCO`, the AC50 under setting [1] is 35.5 µM [rising, single point].

As to `O=C(CSc1cccc[n+]1[O-])c1cccs1`, the AC50 (measured here: IkBa-CBG green luminescence) was 28.2 µM [falling, single point].

As to `COc1ccc(C(=O)Nc2cc(OC)nc(OC)n2)cc1`, the AC50 under setting [1] is 23.1 µM [falling, partial curve].

Consider `O=C(O)c1ccccc1C(=O)NCc1c(Cl)cccc1Sc1ccc(Cl)cc1`, for which, under setting [1], the AC50 is 4.47 µM [falling, single point].

On to `CCOC(=O)NC(=O)/C(C#N)=N\Nc1cccc(Cl)c1`, for which, under setting [1], the AC50 was 0.562 µM [rising, full curve, poor fit].

For `COc1ccc(CCN(/C=C2\Sc3ccccc3C2=O)C(C)=O)cc1OC`, the AC50 under setting [1] is 3.16 µM [falling, full curve, poor fit].

As to `COC(=O)c1c(-c2ccccc2OC)sc2ccccc12`, the AC50 under setting [1] was 5.17 µM [rising, partial curve, poor fit].
